Source: patent EP4052593B1, “TOBACCO FILLER FOR HEAT-NOT-BURN TOBACCO PRODUCTS, HEAT-NOT-BURN TOBACCO PRODUCT, AND ELECTRICALLY HEATED TOBACCO PRODUCT” (Japan Tobacco Inc., priority 2019, dated 2021)

tested on: in-house panelists; assay: Sensory evaluation test (use test, visual analog scale method) of feeling of smoking (cigarette-like); type: in vivo; settings: Experimental Example 1, Fig. 5 and Fig. 6

SMILES | feeling of smoking (result in words)
CCCCCCCCCCCCCCCCCCC(=O)O [Comparative Example 5, Nonadecanoic acid] | effect was also confirmed

same assay, conditions: Experimental Example 1; VAS method, 10 panelists; heater 320°C; substance sprayed on tobacco sheet at the weight addition ratio of Table 1 (0.9-5.1 %)

SMILES | Feeling of smoking (cigarette-like) Difference between additive-containing lot and additive-free lot
CCCCCCCC(=O)O [Comparative Example 2, Octanoic acid] | -30.9
CCCCCCCCCC(=O)O [Comparative Example 3, Decanoic acid] | -24.4
CCCCCCCCCCCCCC(=O)O [Comparative Example 4, Myristic acid] | -1.7
CCCCCCCCCCCCCCCCCCC(=O)O [Comparative Example 5, Nonadecanoic acid] | 5.4
CCCCC/C=C\C/C=C\CCCCCCCC(=O)O [Comparative Example 7, Linoleic acid] | -8.1
CCCCCCCC/C=C\CCCCCCCC(=O)O [Comparative Example 8, Oleic acid] | -25.7
CCCCCCCCCCCCCCCC(=O)O [Example 1, Palmitic acid] | 8.5
CCCCCCCCCCCCCCCCCC(=O)O [Example 2, Stearic acid] | 9.9
